Measured values from the supplement of paper PMC10849652.
The other results are listed elsewhere or left out.

The chains behind the UniProt entries cited, without tags or fusion partners. Where a name states a change or a piece, a line headed by the entry shows the natural chain unless it says otherwise.
UniProt Q9BVG8: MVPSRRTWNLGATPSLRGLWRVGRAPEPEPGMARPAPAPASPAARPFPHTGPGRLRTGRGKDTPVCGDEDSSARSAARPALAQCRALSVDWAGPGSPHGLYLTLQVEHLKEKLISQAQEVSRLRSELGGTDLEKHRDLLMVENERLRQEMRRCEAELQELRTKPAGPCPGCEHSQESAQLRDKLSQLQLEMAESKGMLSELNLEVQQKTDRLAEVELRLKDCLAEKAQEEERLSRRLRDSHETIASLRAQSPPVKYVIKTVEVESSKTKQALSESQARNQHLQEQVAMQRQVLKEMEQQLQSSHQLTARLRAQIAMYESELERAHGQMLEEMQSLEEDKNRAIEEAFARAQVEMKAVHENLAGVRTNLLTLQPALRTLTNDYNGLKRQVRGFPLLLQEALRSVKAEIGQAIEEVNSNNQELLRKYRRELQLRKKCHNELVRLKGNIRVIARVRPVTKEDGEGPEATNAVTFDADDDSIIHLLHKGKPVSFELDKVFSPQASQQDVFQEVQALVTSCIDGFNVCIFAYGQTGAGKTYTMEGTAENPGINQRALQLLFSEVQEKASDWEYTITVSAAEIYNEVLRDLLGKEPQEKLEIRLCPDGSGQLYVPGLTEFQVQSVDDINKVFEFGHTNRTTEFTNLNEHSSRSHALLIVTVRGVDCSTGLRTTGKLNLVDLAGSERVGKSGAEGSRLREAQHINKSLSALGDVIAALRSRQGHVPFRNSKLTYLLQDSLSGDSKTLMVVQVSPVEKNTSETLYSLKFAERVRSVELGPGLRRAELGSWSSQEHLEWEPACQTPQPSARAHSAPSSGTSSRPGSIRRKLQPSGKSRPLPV
UniProt Q6TDP4, whole entry, looked up: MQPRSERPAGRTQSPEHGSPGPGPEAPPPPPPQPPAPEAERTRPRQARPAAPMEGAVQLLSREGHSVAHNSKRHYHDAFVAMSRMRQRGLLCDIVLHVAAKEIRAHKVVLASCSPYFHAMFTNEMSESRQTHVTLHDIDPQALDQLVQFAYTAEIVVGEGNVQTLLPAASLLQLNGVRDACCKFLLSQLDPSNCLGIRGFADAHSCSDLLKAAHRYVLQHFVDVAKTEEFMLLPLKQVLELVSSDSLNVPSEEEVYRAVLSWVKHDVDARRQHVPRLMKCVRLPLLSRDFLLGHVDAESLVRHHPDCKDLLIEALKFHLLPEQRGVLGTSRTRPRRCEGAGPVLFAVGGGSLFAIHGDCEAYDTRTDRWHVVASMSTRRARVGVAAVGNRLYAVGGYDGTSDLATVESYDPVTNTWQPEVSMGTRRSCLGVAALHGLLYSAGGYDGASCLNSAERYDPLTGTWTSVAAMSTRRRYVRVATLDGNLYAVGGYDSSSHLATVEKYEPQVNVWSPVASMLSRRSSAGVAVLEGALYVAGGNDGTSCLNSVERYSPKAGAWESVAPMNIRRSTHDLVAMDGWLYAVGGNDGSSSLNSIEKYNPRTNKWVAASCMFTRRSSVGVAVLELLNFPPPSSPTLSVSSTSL
UniProt Q9BVV6: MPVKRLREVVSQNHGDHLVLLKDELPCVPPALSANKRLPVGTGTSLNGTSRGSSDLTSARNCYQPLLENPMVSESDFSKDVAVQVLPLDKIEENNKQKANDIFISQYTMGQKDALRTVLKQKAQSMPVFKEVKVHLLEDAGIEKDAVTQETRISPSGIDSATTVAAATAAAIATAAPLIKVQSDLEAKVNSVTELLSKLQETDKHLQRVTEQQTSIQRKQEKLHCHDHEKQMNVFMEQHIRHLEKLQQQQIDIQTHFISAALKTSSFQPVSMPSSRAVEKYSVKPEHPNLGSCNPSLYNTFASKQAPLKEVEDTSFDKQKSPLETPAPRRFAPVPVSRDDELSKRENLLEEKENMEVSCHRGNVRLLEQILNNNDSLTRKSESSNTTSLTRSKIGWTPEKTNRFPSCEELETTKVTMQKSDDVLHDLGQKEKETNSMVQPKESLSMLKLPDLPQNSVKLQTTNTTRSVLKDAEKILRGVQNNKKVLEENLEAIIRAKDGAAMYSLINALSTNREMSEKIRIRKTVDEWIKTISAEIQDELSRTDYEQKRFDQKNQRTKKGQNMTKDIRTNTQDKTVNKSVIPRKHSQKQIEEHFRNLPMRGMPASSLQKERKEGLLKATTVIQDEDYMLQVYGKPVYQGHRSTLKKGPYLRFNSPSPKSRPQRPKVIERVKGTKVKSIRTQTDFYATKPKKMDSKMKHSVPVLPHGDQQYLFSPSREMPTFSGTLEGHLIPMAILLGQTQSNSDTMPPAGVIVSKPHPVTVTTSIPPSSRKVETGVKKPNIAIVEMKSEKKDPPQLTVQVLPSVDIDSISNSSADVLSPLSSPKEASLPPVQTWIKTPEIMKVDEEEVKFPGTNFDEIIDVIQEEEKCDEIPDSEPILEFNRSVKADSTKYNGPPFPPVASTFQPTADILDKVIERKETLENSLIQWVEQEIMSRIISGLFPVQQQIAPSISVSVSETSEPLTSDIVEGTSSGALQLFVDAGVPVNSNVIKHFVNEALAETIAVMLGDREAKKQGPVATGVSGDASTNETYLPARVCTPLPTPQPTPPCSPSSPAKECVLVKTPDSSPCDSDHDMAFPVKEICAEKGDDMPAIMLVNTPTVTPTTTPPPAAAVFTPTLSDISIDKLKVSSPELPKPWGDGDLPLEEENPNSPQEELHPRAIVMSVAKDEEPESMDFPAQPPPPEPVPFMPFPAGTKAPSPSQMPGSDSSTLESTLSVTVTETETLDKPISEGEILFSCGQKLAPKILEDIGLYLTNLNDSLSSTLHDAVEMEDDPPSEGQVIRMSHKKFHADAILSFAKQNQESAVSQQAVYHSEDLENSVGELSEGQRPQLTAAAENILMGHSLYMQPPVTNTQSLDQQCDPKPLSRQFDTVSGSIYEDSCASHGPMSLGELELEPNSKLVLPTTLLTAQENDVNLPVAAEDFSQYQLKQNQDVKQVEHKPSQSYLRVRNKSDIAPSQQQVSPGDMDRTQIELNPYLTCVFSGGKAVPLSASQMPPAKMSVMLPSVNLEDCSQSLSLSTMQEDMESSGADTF
UniProt Q9HCM3: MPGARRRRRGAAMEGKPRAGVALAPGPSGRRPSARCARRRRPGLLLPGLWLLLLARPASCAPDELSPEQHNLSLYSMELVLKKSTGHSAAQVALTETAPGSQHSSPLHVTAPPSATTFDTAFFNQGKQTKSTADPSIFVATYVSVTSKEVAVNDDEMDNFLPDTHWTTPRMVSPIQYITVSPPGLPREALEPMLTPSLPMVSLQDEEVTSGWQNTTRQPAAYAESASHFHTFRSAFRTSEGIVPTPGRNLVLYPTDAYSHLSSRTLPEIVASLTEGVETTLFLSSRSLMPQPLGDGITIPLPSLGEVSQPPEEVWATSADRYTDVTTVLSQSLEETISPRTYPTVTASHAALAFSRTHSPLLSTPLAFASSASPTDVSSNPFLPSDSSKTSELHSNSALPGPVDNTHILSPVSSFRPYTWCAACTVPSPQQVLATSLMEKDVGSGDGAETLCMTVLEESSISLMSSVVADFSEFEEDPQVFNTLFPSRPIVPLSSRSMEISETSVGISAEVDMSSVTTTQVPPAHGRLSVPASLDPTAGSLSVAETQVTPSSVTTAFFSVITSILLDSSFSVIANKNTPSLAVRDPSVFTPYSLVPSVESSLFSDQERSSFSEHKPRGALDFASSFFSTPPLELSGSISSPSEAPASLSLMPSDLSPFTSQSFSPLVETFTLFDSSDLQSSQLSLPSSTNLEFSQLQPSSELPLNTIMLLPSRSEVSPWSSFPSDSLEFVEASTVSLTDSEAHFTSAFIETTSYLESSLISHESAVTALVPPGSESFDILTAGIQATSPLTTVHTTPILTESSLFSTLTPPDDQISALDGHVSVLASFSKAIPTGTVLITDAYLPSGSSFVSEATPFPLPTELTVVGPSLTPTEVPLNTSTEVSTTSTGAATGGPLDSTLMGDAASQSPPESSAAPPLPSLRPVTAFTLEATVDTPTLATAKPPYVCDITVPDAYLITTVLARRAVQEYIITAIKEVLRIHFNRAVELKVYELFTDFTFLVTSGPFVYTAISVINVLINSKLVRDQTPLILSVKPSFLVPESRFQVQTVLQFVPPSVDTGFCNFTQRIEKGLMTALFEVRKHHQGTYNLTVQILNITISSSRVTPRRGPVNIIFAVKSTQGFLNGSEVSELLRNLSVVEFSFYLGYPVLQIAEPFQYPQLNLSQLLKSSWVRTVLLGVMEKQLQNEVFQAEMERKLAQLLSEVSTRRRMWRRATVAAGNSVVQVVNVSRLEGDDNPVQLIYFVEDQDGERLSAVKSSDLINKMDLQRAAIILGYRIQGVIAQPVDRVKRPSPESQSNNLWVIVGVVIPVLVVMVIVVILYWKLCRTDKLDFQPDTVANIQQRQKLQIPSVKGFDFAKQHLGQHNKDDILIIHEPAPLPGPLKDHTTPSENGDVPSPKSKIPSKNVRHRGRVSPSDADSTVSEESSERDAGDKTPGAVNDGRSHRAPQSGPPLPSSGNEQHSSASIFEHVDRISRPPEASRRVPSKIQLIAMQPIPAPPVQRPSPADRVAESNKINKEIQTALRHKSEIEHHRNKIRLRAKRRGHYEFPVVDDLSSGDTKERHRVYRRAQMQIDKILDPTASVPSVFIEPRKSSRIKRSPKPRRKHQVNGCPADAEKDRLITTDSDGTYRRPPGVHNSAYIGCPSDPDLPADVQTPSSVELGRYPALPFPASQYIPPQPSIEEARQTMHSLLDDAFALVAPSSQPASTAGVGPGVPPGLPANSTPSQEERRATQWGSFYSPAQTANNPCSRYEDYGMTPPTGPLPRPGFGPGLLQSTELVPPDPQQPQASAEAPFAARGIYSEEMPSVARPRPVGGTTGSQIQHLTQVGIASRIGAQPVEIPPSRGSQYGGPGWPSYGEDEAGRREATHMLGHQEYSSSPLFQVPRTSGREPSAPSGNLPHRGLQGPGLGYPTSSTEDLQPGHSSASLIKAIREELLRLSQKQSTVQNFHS
UniProt O15131, whole entry, looked up: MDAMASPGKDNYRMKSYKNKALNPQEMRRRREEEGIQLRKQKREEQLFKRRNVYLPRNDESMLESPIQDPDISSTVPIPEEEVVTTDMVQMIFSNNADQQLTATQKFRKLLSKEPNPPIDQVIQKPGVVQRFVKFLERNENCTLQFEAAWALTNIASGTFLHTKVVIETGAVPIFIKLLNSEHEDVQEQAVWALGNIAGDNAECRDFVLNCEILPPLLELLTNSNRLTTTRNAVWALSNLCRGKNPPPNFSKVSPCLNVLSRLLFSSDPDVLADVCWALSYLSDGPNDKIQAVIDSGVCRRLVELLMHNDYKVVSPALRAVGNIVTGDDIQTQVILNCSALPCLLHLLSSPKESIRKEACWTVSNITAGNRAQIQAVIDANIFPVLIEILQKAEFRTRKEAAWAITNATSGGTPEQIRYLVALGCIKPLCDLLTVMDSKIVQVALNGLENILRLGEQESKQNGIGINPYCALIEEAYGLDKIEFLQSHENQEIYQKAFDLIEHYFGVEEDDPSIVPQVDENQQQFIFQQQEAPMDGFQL
UniProt Q8N3Y3: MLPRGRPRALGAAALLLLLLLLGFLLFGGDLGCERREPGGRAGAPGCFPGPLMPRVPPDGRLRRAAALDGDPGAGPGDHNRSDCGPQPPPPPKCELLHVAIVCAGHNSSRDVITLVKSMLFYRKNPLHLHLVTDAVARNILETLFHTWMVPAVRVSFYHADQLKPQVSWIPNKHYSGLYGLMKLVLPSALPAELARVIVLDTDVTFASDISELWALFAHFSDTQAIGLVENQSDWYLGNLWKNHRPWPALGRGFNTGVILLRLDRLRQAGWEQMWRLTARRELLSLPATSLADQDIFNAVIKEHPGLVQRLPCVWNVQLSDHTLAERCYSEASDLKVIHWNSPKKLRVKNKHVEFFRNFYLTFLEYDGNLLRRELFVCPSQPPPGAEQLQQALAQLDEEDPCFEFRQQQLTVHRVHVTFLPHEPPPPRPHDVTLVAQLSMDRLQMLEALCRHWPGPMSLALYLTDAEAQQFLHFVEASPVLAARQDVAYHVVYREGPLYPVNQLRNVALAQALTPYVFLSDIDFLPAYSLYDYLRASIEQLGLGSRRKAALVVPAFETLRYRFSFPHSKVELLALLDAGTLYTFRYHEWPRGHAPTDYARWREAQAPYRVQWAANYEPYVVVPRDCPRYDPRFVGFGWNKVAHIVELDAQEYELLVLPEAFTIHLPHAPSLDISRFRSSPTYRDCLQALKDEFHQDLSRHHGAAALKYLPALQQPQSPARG
UniProt Q9GZZ8: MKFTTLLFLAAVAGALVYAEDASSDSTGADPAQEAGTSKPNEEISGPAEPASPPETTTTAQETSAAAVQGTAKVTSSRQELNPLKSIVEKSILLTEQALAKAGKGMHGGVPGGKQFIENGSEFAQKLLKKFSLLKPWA

How the values were obtained:
Assay in all cases: log2 fold change, soluble protein after heating vs DMSO (PISA); higher = thermal stabilisation; K562 lysate, 10 uM; active = over 0.2 and 3.5 SD of the protein, either way, in both replicates (recomputed)
[1] = compound: CN1CC[C@H](c2c(O)cc(O)c3c(=O)cc(-c4ccccc4Cl)oc23)[C@H](O)C1 [alvocidib]
Summary of the method: (§1)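 Pellets of K562 cells were dounce-homogenised in PBS pH 7.4 with 1 mM MgCl2, and the crude extract was held at 1 mg/mL protein for a 30 min treatment with 10 μM compound. Aliquots were heated for 3 min over 48°C-58°C and pooled before NP-40 was added to 0.5% at 4°C. The supernatant from 21,000xg for 90 min was quantified by TMTpro 16plex LC-MS/MS with channel sums equalised. Values are reported from duplicates as log-two fold change in thermal stability relative to solvent controls.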

[2] = compound: CN1CCc2c(c3ccccc3n2Cc2ccc(C(=O)NO)cc2)C1 [Tubastatin A]
Summary of the method: as §1

[3] = compound: CNC(=O)C1=CC=CC=C1NC2=NC(=NC=C2Cl)NC3=C(C=C(C=C3)N4CCOCC4)OC
Summary of the method: as §1

[4] = compound: CNC(=O)c1ccc(Nc2ncc(C(F)(F)F)c(NCc3nccnc3N(C)S(C)(=O)=O)n2)cc1 [defactinib]
Summary of the method: as §1

[5] = compound: COC(=O)N[C@@H](C)CNc1nccc(-c2cn(C(C)C)nc2-c2cc(Cl)cc(NS(C)(=O)=O)c2F)n1 [encorafenib]
Summary of the method: as §1

[6] = compound: COC(=O)[C@H](CCSC)NC(=O)C1=C(C=C(C=C1)NC[C@H](CS)N)C2=CC=CC=C2
Summary of the method: as §1

[7] = compound: COc1cc(Nc2ncc3c(n2)-c2ccc(Cl)cc2C(c2c(F)cccc2OC)=NC3)ccc1C(=O)O [alisertib]
Summary of the method: as §1

[8] = compound: COc1cc2nc(-c3cc(F)ccc3O)nc(N[C@@H]3CNC[C@H]3C(C)(C)O)c2cc1OC
Summary of the method: as §1

[9] = compound: COc1cc2ncnc(Nc3ccc(F)c(Cl)c3)c2cc1OCCCN1CCOCC1 [gefitinib]
Summary of the method: as §1

[10] = compound: CNc1nc(-c2ccc3c(N)n[nH]c3c2)cc(N2C[C@@H](C(=O)NC3CCCCC3)CC[C@H]2C)n1
Summary of the method: as §1

Measured: log2 fold change

LAMA2 (UniProt P24043)
inactive: [1] -0.152 | [2] 0.049 | [3] -0.047 | [4] -0.002 | [5] -0.016 | [6] 0.123 | [7] -0.038 | [8] 0.041 | [9] -0.017

KIF3B (UniProt O15066)
inactive: [1] -0.286 | [2] -0.165 | [3] 0.023 | [4] 0.037 | [5] 0.005 | [6] 0.227 | [7] 0.017 | [8] -0.069 | [9] -0.004

KIF1C (UniProt O43896)
inactive: [1] -0.004 | [2] -0.055 | [3] -0.074 | [4] 0.083 | [5] -0.213 | [6] 0.224 | [7] -0.09 | [8] -0.007 | [9] 0.031

KIFC3 isoform 6 (UniProt Q9BVG8)
active: [1] -0.786
inactive: [3] 0.003 | [4] -0.255 | [10] 0.308 | [5] -0.053 | [6] 0.04

KRI1 (UniProt Q8N9T8)
inactive: [1] 0.017 | [2] -0.113 | [3] 0.016 | [4] 0.019 | [10] -0.012 | [5] 0.038 | [6] 0.009 | [7] 0.042 | [9] -0.106

KIF1B isoform 3 (UniProt O60333)
inactive: [1] -0.069 | [2] -0.086 | [3] -0.03 | [10] -0.01 | [5] -0.142 | [6] 0 | [7] -0.02 | [9] -0.214

KIFBP (UniProt Q96EK5)
inactive: [1] 0.017 | [2] -0.09 | [3] 0.026 | [4] 0.058 | [10] -0.011 | [5] 0.025 | [6] 0.103 | [7] -0.003 | [8] -0.015 | [9] -0.012

KIF20A (UniProt O95235)
inactive: [1] -0.012 | [2] -0.177 | [4] 0.043 | [10] 0.054 | [5] -0.049 | [6] 0.156 | [7] -0.138 | [9] 0.009

KDM5B isoform 2 (UniProt Q9UGL1)
inactive: [1] -0.048 | [2] 0.021 | [3] -0.007 | [4] 0.08 | [10] 0.307 | [5] -0.094 | [6] 0.075 | [8] 0.014

KIN (UniProt O60870)
inactive: [1] -0.049 | [2] 0.055 | [3] -0.033 | [4] 0.044 | [10] 0.074 | [5] -0.037 | [6] 0.048 | [7] 0.02 | [8] 0.041 | [9] 0.039

KLHL17 (UniProt Q6TDP4)
inactive: [1] 0.009 | [2] 0.008 | [3] 0.165 | [5] -0.141 | [6] 0.034

KRAS isoform 2 (UniProt P01116)
inactive: [2] 0.076 | [3] -0.037 | [10] 0.046 | [5] -0.109 | [6] -0.062 | [8] 0.019

KIAA1586 (UniProt Q9HCI6)
inactive: [2] 0.044 | [3] -0.222 | [4] 0.08 | [10] -0.008 | [7] -0.06 | [9] -0.277

KLK3 (UniProt P07288)
inactive: [10] 0.276

KLHDC8B (UniProt Q8IXV7)
inactive: [2] 0.16 | [3] 0.028 | [10] 0.047 | [5] 0 | [6] 0.154 | [7] 0.236 | [9] 0.206

KIAA0586 isoform 3 (UniProt Q9BVV6)
inactive: [2] -0.108 | [3] 0.017 | [10] 0.036 | [7] 0.216 | [9] -0.032

KISS1R (UniProt Q969F8)
inactive: [7] -0.05 | [9] -0.073

LANCL3 (UniProt Q6ZV70)
inactive: [1] -0.092 | [4] 0.056 | [5] 0.012 | [6] 0.183 | [7] 0.058 | [9] -0.051

KHNYN (UniProt O15037)
inactive: [2] -0.072 | [3] -0.063 | [4] -0.016 | [10] -0.025 | [5] 0.069 | [6] -0.004 | [7] 0.078 | [9] -0.219

KRT13 (UniProt K7EMD9)
inactive: [2] 0.286 | [3] 0.071

KIF21A (UniProt H0YI78)
inactive: [3] 0.056 | [10] -0.01 | [7] -0.003 | [8] 0.029 | [9] -0.1

LAPTM4A (UniProt Q15012)
inactive: [4] 0.289 | [10] -0.379

KLHL8 (UniProt Q9P2G9)
inactive: [2] 0.071

KIDINS220 isoform 2 (UniProt Q9ULH0)
inactive: [4] -0.104

KIAA1549 (UniProt Q9HCM3)
inactive: [2] 0.163 | [7] 0.076 | [9] 0.292

KLHL12 isoform 2 (UniProt Q53G59)
inactive: [2] -0.156 | [3] -0.051 | [4] -0.025 | [10] -0.02 | [7] 0.023 | [8] 0.086 | [9] -0.048

KRT87P (UniProt A6NCN2)
inactive: [3] 0.037

LAMB2 (UniProt P55268)
inactive: [3] -0.278 | [10] 0.179 | [5] -0.005 | [6] -0.008

KLC1 isoform 10 (UniProt Q07866)
inactive: [3] 0.147 | [5] 0.06 | [6] -0.109

KPNA5 (UniProt O15131)
inactive: [3] -0.003 | [7] -0.096 | [9] 0.047

3 neighbouring entries out of the list so far, quoted:
LAMB2 (UniProt P55268)
inactive: [3] -0.278 | [10] 0.179 | [5] -0.005 | [6] -0.008

KLC1 isoform 10 (UniProt Q07866)
inactive: [3] 0.147 | [5] 0.06 | [6] -0.109

KPNA5 (UniProt O15131)
inactive: [3] -0.003 | [7] -0.096 | [9] 0.047

Next records.

KMT2D (UniProt O14686)
inactive: [10] 0.059

KIF18B (UniProt Q86Y91)
inactive: [10] -0.067 | [5] -0.159 | [6] -0.04 | [8] 0.046

LARGE2 (UniProt Q8N3Y3)
inactive: [1] -0.062 | [7] 0.041 | [9] -0.152

KLC3 isoform 3 (UniProt Q6P597)
inactive: [1] -0.014 | [5] 0.011 | [6] 0.037 | [7] 0.078 | [8] 0.053 | [9] 0.009

KLHDC2 (UniProt Q9Y2U9)
inactive: [3] -0.045 | [4] -0.05

KPNB1 (UniProt J3QKQ5)
inactive: [2] 0.158

KLF3 (UniProt P57682)
inactive: [2] -0.121 | [5] 0.019 | [6] -0.145 | [7] -0.002 | [9] 0.216

KRIT1 (UniProt O00522)
inactive: [2] -0.034 | [3] 0.089 | [4] 0.045 | [10] 0.102 | [5] 0.118 | [6] 0.123 | [7] 0.038 | [8] -0.055 | [9] 0.029

KMT2B (UniProt Q9UMN6)
inactive: [3] -0.083 | [10] 0.246 | [5] 0.127 | [6] -0.008

LACRT (UniProt Q9GZZ8)
inactive: [3] 0.227 | [8] 0.014

KIAA0556 (UniProt O60303)
inactive: [7] -0.004 | [9] 0.299

KLF1 (UniProt Q13351)
inactive: [2] -0.07 | [3] 0.19 | [7] 0.025 | [8] 0.038 | [9] -0.078

KTN1 (UniProt G3V5Q0)
inactive: [3] 0.183 | [4] -0.059 | [5] -0.052 | [6] -0.021

L3MBTL2 (UniProt Q969R5)
inactive: [1] -0.221 | [10] -0.285 | [5] 0.031 | [6] 0.014 | [7] -0.037 | [9] -0.052
